From PMC8508952
No constants are given. Whether binding was seen depends on the method and setting. In cells and extracts the contact can be indirect. Some binding calls cover weakened binding; strength is not graded here. Tags and fused reporters may be left off the sequences shown.

The chains behind the UniProt entries cited, without tags or fusion partners. Residues count along the entry.
UniProt P01833, residues 19-764: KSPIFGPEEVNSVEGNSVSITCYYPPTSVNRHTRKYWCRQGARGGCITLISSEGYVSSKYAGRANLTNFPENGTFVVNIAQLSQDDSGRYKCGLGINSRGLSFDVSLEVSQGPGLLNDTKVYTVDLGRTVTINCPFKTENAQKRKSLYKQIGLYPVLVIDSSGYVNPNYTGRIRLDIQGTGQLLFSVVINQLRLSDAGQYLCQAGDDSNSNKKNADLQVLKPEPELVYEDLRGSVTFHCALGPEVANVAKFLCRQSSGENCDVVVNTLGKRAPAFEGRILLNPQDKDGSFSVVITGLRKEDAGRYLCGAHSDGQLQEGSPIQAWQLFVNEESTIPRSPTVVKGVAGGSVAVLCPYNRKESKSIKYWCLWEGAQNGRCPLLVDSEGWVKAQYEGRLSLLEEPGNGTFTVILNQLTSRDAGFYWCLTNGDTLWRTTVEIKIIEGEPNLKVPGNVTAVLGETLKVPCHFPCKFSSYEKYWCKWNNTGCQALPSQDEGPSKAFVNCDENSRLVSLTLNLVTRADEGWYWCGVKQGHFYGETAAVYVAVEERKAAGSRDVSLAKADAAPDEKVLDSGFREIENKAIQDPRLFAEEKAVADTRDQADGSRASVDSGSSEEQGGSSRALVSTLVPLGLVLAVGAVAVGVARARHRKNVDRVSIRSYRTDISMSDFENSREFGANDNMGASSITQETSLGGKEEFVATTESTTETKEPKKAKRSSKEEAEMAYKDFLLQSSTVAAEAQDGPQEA
UniProt P19474: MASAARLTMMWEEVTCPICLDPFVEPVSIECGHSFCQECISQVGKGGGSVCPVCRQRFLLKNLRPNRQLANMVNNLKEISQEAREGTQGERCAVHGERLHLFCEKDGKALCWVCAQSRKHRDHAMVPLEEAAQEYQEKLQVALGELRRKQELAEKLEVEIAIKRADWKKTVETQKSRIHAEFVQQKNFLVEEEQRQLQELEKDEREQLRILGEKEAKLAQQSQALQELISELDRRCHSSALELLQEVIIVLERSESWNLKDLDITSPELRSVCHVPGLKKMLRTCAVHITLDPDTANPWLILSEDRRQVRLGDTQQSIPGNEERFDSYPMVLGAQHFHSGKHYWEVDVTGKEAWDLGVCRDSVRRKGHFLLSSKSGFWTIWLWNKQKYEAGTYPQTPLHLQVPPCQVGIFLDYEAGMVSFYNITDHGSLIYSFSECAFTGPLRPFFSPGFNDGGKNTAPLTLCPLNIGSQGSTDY

Legend:
[1] = target: T1, Rab11-FIP5 (Rab11 family interacting protein 5), HA-tagged (human) (UniProt Q9BXF6); assay: co-IP; HEK293T co-transfected with the indicated plasmids for 24 h; NP-40 lysis buffer; indicated antibody or control IgG with Protein G Sepharose at 4 °C overnight; washes with lysis buffer containing 500 mM NaCl; immunoblotting
T1 sequence: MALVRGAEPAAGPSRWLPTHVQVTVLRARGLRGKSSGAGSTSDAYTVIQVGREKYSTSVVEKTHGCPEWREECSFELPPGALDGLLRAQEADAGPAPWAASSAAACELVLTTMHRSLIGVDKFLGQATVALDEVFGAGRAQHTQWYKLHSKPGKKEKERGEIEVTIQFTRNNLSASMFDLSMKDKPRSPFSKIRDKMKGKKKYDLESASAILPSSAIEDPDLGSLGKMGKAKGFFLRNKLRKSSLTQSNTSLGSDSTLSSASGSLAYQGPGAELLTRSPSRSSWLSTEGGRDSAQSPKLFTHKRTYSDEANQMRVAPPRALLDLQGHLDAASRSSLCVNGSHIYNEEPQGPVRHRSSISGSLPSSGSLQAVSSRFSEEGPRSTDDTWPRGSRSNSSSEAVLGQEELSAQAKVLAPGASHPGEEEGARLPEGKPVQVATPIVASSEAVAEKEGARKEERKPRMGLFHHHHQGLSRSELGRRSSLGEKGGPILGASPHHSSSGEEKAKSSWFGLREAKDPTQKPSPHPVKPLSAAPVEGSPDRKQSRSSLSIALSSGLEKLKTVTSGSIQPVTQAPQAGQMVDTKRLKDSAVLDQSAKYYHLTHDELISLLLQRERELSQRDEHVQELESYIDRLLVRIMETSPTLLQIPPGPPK

[2] = target: polymeric immunoglobulin receptor (pIgR), Flag-tagged (human) (UniProt P01833); assay: as above
[3] = target: Tripartite motif-containing 21 (TRIM21), Flag-tagged (human) (UniProt P19474); assay: as above
[4] = target: polymeric immunoglobulin receptor (pIgR), Flag-tagged (human) (UniProt P01833); assay: co-IP; HEK293T; co-transfection of HA-Rab11-FIP5 with V5-Rab11-FIP1 and pIgR-Flag to test competition for pIgR (Supplementary Figure S4A)

B1: Rab11-FIP1 (Rab11 family interacting protein 1), HA-tagged (protein, UniProt Q6WKZ4 1-1283)
chain: MSLMVSAGRGLGAVWSPTHVQVTVLQARGLRAKGPGGTSDAYAVIQVGKEKYATSVSERSLGAPVWREEATFELPSLLSSGPAAAATLQLTVLHRALLGLDKFLGRAEVDLRDLHRDQGRRKTQWYKLKSKPGKKDKERGEIEVDIQFMRNNMTASMFDLSMKDKSRNPFGKLKDKIKGKNKDSGSDTASAIIPSTTPSVDSDDESVVKDKKKKSKIKTLLSKSNLQKTPLSQSMSVLPTSKPEKVLLRPGDFQSQWDEDDNEDESSSASDVMSHKRTASTDLKQLNQVNFTLPKKEGLSFLGGLRSKNDVLSRSNVCINGNHVYLEQPEAKGEIKDSSPSSSPSPKGFRKKHLFSSTENLAAGSWKEPAEGGGLSSDRQLSESSTKDSLKSMTLPSYRPAPLVSGDLRENMAPANSEATKEAKESKKPESRRSSLLSLMTGKKDVAKGSEGENPLTVPGREKEGMLMGVKPGEDASGPAEDLVRRSEKDTAAVVSRQGSSLNLFEDVQITEPEAEPESKSEPRPPISSPRAPQTRAVKPRLEVSPEAQPTARLPSPTDSPSSLPPLPSSSGQASVPSELGHGADTQSSESPSVFSSLSSPIAAPISTSTPIESWPLVDRGQAKSEGPPLLPKAELQTESLTPVPNSGSSALGSLFKQPSFPANKGTEDSLMGRTRETGTEKNTSSLELEESLPEQPETGRQEEELPRFPCKKQDYSPSSGEAQEVPFALSLSSDGAVSPVGELAAGGDRDLESQAGSLVESKARDAAEEVAPPLPMGASVPSIDSMMRKLEEMGLNLRKDQKKTKKRVSFSEQLFTEEAVAGAALLVEGHSSCPQELNPAWSVAGNASDGEPPESPHAEDSERESVTTPGPATCGAPASPADHLLLPSQEESFSEVPMSEASSAKDTPLFRMEGEDALVTQYQSKASDHEGLLSDPLSDLQLVSDFKSPIMADLNLSLPSIPEVASDDERIDQVEDDGDQVEDDGETAKSSTLDIGALSLGLVVPCPERGKGPSGEADRLVLGEGLCDFRLQAPQASVTAPSEQTTEFGIHKPHLGKSSSLDKQLPGPSGGEEEKPMGNGSPSPPPGTSLDNPVPSPSPSEIFPVTHSFPSSAHSDTHHTSTAESQKKATAEGSAGRVENFGKRKPLLQAWVSPSETHPVSAQPGAGTGSAKHRLHPVKPMNAMATKVANCSLGTATIISENLNNEVMMKKYSPSDPAFAYAQLTHDELIQLVLKQKETISKKEFQVRELEDYIDNLLVRVMEETPNILRIPTQVGKKAGKM
In the case of B1, the binding [1] is reported as “binds”, the binding [2] is reported as “binds” and the binding [3] is reported as “binds”.

B2: Rab11-FIP5 (Rab11 family interacting protein 5), HA-tagged (protein, UniProt Q9BXF6 1-653)
chain: T1 sequence
For B2, the binding [2] was “binds” and the binding [3] was “binds”.

B3: V5-Rab11-FIP1 (protein, UniProt Q6WKZ4 1-1283)
chain: B1 chain
With B3 the binding [4] was “binds”.
